PMC7819943, “Rice protein-binding microarrays: a tool to detect cis-acting elements near promoter regions in rice”
This is one part of the list.

Chains of the proteins cited; added tags and fusions are not shown.
UniProt Q0JBA9, entry or part of it: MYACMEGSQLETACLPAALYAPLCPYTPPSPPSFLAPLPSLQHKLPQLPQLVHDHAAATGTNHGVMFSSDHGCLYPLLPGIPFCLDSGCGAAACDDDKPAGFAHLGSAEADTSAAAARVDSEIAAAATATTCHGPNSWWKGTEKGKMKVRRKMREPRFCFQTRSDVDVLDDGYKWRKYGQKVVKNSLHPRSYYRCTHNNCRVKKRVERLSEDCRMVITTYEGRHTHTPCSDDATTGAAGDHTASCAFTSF

target: OsWRKY34 (Oryza sativa, UniProt Q0JBA9 1-250); test: protein-binding microarray (RPBM); PBS, 2% BSA, 51.3 ng/ul salmon testes DNA, 50 uM zinc acetate, 200 nM TF, 25 C, 1 h; high values mean tight binding; conditions: protein: recombinant; tags: N-terminal polyhistidine and DsRed monomer fusion (pET32a); label: CyDye5-dUTP incorporated in the synthesized complementary strand; 3' TTTTT single-stranded linker to array surface; dsDNA, one strand shown
Method in brief: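 A custom Agilent array was converted to double-stranded form by primer extension with Cy5-dUTP and blocked with 2% BSA. Protein at 200 nM in PBS with 2% BSA, salmon testes DNA and 50 µM zinc acetate was applied for 1 h at 25 °C, followed by washing. The proteins were polyhistidine–DsRed N-terminal fusions of transcription factors, expressed in E. coli BL21-CodonPlus and Ni–NTA-purified. The binding signal is per-feature fluorescence intensity (arbitrary units) from an Axon 4000B scanner.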

Compared with “CGTCGGGGTTGGGGTTGGGGCTGGGGCCGGCGCCGACGCCCGGAGTCACCTAGTGCAG”, “AGTGTCCATTCTATTTTAATTCTTTGCGCGTTGTGAGGTACGGAGTCACCTAGTGCAG” is lower in binding signal: 13400 fluorescence intensity (a.u.) for the first, 9860 fluorescence intensity (a.u.) for the second.

First: CCGTCACCCGTCGCCTCCGCATGCCCACACACACCACGATCGGAGTCACCTAGTGCAG
Second: GTTGTGACTACCCTCAGTCCGTCGTCTAAGTCAAATAATTCGGAGTCACCTAGTGCAG
The binding signal of the first is higher: 9510 fluorescence intensity (a.u.) for the first, 9290 fluorescence intensity (a.u.) for the second.

First: TCCTTCTCCAACCAGTCATTGCGGTCGCCTTTCTTCATCACGGAGTCACCTAGTGCAG
Second: GCATGTTCTTTTTACATTCGTGTAATTATATTTCTATTATCGGAGTCACCTAGTGCAG
The binding signal of the first is lower: 9450 fluorescence intensity (a.u.) for the first, 9850 fluorescence intensity (a.u.) for the second.

Compared with “ATCGATCTGCCTTTTGAGTTTTGTACACATCCATCTTTTCCGGAGTCACCTAGTGCAG”, “AAACGCCGTTCCTTTTTTCTTTTTTCTCTCCCGATCGATCCGGAGTCACCTAGTGCAG” is lower in binding signal: 14200 fluorescence intensity (a.u.) for the first, 8050 fluorescence intensity (a.u.) for the second.

Compared with “GGCATCCTCAAATTCCACCCTTTTCACCCTGTTTGCACTTCGGAGTCACCTAGTGCAG”, “ATCAAGTCACCAGCTACATGGCATTTTGGCCTCAACTCTCCGGAGTCACCTAGTGCAG” is lower in binding signal: 8420 fluorescence intensity (a.u.) for the first, 8340 fluorescence intensity (a.u.) for the second.

Going from “TCTACCCGGAGCTCTGCCTGTCCACGCTCGCCGACATCCCCGGAGTCACCTAGTGCAG” to “TGACAAATCTATTCTATTTTACTTTATTTTTTTATTTTTCCGGAGTCACCTAGTGCAG”, the binding signal falls from 11100 fluorescence intensity (a.u.) to 8980 fluorescence intensity (a.u.).

First: CCCTCCGCCGCCGCTGCCGGCCTGCTGCTCTGCTGCCGCGCGGAGTCACCTAGTGCAG
Second: AAGGTAGAGGAGGAGAAGTTGGGGTTTGGGAGGGCCAGCGCGGAGTCACCTAGTGCAG
The binding signal of the first is lower: 9230 fluorescence intensity (a.u.) for the first, 11600 fluorescence intensity (a.u.) for the second.

Going from “CCCACTCCTCGCCGCGCTGCCAAATGTACGTCGCTGCCACCGGAGTCACCTAGTGCAG” to “GTCGGACTCCTATTTCCTTTAGAATTCTTGCCAAATCATACGGAGTCACCTAGTGCAG”, the binding signal rises from 8590 fluorescence intensity (a.u.) to 8910 fluorescence intensity (a.u.).

Compared with “TCCGCGGGTTCGTCCGCTTCTTCAACCTCTCCACCGGCGCCGGAGTCACCTAGTGCAG”, “GCATCCGTCCGTCAACGCACATCGTCACTGCTGCTTCCTGCGGAGTCACCTAGTGCAG” is higher in binding signal: 8300 fluorescence intensity (a.u.) for the first, 15700 fluorescence intensity (a.u.) for the second.

First: ACACCACTCTCTCGCCCACTGTTTTTCTCTTGTGCAGGGACGGAGTCACCTAGTGCAG
Second: CGAACTATTTTGACCACCCGTATGCATCTTGTTGGTTCTGCGGAGTCACCTAGTGCAG
The binding signal of the first is lower: 8920 fluorescence intensity (a.u.) for the first, 9050 fluorescence intensity (a.u.) for the second.

First: ATCCCCACGCGCGCGCTACTCACTCCCTCCGGCCGTCCCACGGAGTCACCTAGTGCAG
Second: TCACTGTTACCCGTTCACATTAGTCGCTGTTCCAGTCTTCCGGAGTCACCTAGTGCAG
The binding signal of the first is lower: 8150 fluorescence intensity (a.u.) for the first, 10700 fluorescence intensity (a.u.) for the second.

Going from “CCCTGGTGTTTGGATTTGGTTGTTCCTCGCGATTGCATTTCGGAGTCACCTAGTGCAG” to “TGTGGTGTAGGGGCGAATTTTGAACTCGGTGACAAATTGACGGAGTCACCTAGTGCAG”, the binding signal falls from 15600 fluorescence intensity (a.u.) to 9310 fluorescence intensity (a.u.).

Going from “TCATCGTGGACACGTACCCTCGTGCATGCGCGCATGGTGTCGGAGTCACCTAGTGCAG” to “TACACCAAATTGACTAGGCATATATTTGTACCACTCATTCCGGAGTCACCTAGTGCAG”, the binding signal rises from 8050 fluorescence intensity (a.u.) to 8290 fluorescence intensity (a.u.).

Compared with “GGTGCATTCTCCTCCGCTGTATCTACTCGCCAACTCCCTACGGAGTCACCTAGTGCAG”, “TCATTTTTCTCACCTACCTCCACTACTCATTCAATCACAACGGAGTCACCTAGTGCAG” is higher in binding signal: 8800 fluorescence intensity (a.u.) for the first, 9570 fluorescence intensity (a.u.) for the second.

First: CACTCGACTCCAACTATAGTCAACTCCCATAAACAAAACTCGGAGTCACCTAGTGCAG
Second: ATCGGGGTTGTTGTTTTTGTAGCTGCTTAAGCTTTTTATTCGGAGTCACCTAGTGCAG
The binding signal of the first is lower: 8120 fluorescence intensity (a.u.) for the first, 14100 fluorescence intensity (a.u.) for the second.

First: AATTTTGGCATGTATGTGAGGTTGCATCTTTACTTGTACACGGAGTCACCTAGTGCAG
Second: TGTTGTTGTTGGGGTGTTCGCGGCCGATTTGACCCCGGGGCGGAGTCACCTAGTGCAG
The binding signal of the first is lower: 9560 fluorescence intensity (a.u.) for the first, 10900 fluorescence intensity (a.u.) for the second.

Compared with “TCCATCTGGCGAGCAGAGCAGGGCAGGGGAGGGGATCCTGCGGAGTCACCTAGTGCAG”, “AGTGTTCTTTCTTTAGCTTCACATTTGTGATTTTCCTAGGCGGAGTCACCTAGTGCAG” is lower in binding signal: 11700 fluorescence intensity (a.u.) for the first, 8370 fluorescence intensity (a.u.) for the second.

Compared with “ACCCACTTTCGACTCCATGAATTTCATCACATTTGTTTTACGGAGTCACCTAGTGCAG”, “GAGTCCTCATCGGGTCCGGGCGCGCGCCACACACAACTCCCGGAGTCACCTAGTGCAG” is lower in binding signal: 18600 fluorescence intensity (a.u.) for the first, 8480 fluorescence intensity (a.u.) for the second.

First: CTGCTGCGAGGGTGGGTGTTGCTTGTACCGGGCGGGGATGCGGAGTCACCTAGTGCAG
Second: GCCGCTCCTCGGCCACGCGGTGACCTATTGCTTGACTTTTCGGAGTCACCTAGTGCAG
The binding signal of the first is higher: 20300 fluorescence intensity (a.u.) for the first, 9710 fluorescence intensity (a.u.) for the second.

First: AAATCGAGCCGAGCCGACCACTCGTCCTTATTCGCTCGAGCGGAGTCACCTAGTGCAG
Second: TTCGGATCTATATACTACCTGGTTAATTCCTATCTTCTGACGGAGTCACCTAGTGCAG
The binding signal of the first is lower: 8680 fluorescence intensity (a.u.) for the first, 9680 fluorescence intensity (a.u.) for the second.

Going from “TCCTCTTGCCTCCTCCGCTGAGGCAGCCAGTGCGTGCGCCCGGAGTCACCTAGTGCAG” to “TATTTTCTTTATTTTAACATTGAGAAATTTTCGTTTTTTTCGGAGTCACCTAGTGCAG”, the binding signal rises from 8460 fluorescence intensity (a.u.) to 8680 fluorescence intensity (a.u.).
